From PMC5408658, “In vitro characterization of six STUB1 variants in spinocerebellar ataxia 16 reveals altered structural properties for the encoded CHIP proteins” (Bioscience Reports, 2017) come the findings set out here.

This assay concerns the target T1, His-maltose-binding protein (MBP)-CHIP fusion protein, wild type (human), Q9UNE7.
T1 chain: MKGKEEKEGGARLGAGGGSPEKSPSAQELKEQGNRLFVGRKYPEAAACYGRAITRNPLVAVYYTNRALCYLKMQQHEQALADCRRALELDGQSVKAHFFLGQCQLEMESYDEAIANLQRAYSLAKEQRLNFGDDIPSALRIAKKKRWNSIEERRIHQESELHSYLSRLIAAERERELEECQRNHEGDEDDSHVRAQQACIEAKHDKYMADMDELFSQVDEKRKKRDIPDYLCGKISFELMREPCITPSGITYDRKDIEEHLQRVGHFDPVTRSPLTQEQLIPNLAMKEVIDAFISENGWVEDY
Nature of the assay: native gel or EMSA; 10 ug MBP fusion protein on a 12% NativePAGE Bis-Tris gel, Coomassie Blue staining; self-association (oligomeric states); both purified. Particulars: remark: other sources report otherwise. A general note: In EMSA bound probe runs differently from free probe, usually more slowly.

No constants are given. Whether binding was seen depends on the method and setting. Some binding calls cover weakened binding; strength is not graded here. Sequences can lack the tags named with a protein.

B1: His-maltose-binding protein (MBP)-CHIP fusion protein, wild type, Q9UNE7-1 1-303 (enzyme)
chain: MKGKEEKEGGARLGAGGGSPEKSPSAQELKEQGNRLFVGRKYPEAAACYGRAITRNPLVAVYYTNRALCYLKMQQHEQALADCRRALELDGQSVKAHFFLGQCQLEMESYDEAIANLQRAYSLAKEQRLNFGDDIPSALRIAKKKRWNSIEERRIHQESELHSYLSRLIAAERERELEECQRNHEGDEDDSHVRAQQACIEAKHDKYMADMDELFSQVDEKRKKRDIPDYLCGKISFELMREPCITPSGITYDRKDIEEHLQRVGHFDPVTRSPLTQEQLIPNLAMKEVIDAFISENGWVEDY
On to B1, for which the binding entry is recorded as “binds”.
